From PubChem BioAssay AID2685 (National Center for Advancing Translational Sciences (NCATS), 2010)
Some of the results follow. These are further read-outs of the screen, such as a control signal, another cell line or another target. No call is given for them. Most of these compounds were active or inconclusive in the main read-out, so they are no random draw. Words in brackets tell the shape of the fitted curve; partial curves, single points and poor fits give uncertain potencies.

Test: qHTS Assay for Lipid Storage Modulators in Drosophila S3 Cells;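 on cell number change: cells counted by Cell Tracker Red CMTPX staining in the red channel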
Settings: BODIPY lipid droplet fluorescence, 18-24 h; for cell number change: measured here: cell count max response, cells fed with added oleic acid
Summary of the method: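 Drosophila S3 cells got compounds at several concentrations plus oleic acid (400 uM solution). Laser-scanning cytometry with 488 nm excitation read lipid droplets at 500-530 nm and cells at 575-640 nm. Percent activity was relative to 20 uM Triacsin C.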

[1] = measured here: lipid fluorescence (Fed channel) AC50, cells fed with added oleic acid
[2] = measured here: cell number channel AC50, cells fed with added oleic acid

Row | Structure (SMILES) | cell number change | AC50 [1] | AC50 [2]
1 | O=C(CN1CCc2ccccc2C1)Nc1ccc(F)cc1F | 144% | 29.1 µM [rising, single point] | –
2 | Cc1cc(NC(=O)CSC2=NCCS2)no1 | – | 29.1 µM [rising, single point] | –
3 | COc1cc(CCC(=O)N2CCN(S(=O)(=O)c3ccc(C)cc3)CC2)cc(OC)c1OC | 4.7% | 0.731 µM [falling, single point] | –
4 | Cc1ccc(NC(=O)Nc2ccc3c(c2)OCO3)c(Br)c1 | -43.3% | – | 29.1 µM [falling, single point]
5 | C=CCNC(=O)c1ccc(-c2nc(-c3ccc(Cl)cc3Cl)cs2)cc1 | – | 0.58 µM [rising, single point] | –
6 | Clc1ccccc1/C=C/c1ccnc2ccccc12 | -27.6% | 29.1 µM [falling, single point] | –
7 | C=CCN1C(=O)S/C(=C\c2ccc3c(c2)n(C)c(=O)n3C)C1=O | 8.25% | 0.0366 µM [rising, full curve, poor fit] | –
8 | C=CCn1c(SCC(=O)NCC)nnc1-c1cc2c(s1)CCC(CC)C2 (stereo unspecified) | -34.3% | 32.6 µM [falling, single point] | 32.6 µM [falling, single point]
9 | CC/C(=N\NC(=S)Nc1ccc(OC)cc1)c1ccc(OC(F)F)cc1 | 39.7% | 0.366 µM [rising, full curve, poor fit] | 9.2 µM [rising, partial curve]
10 | C#CCOCCOCCOCCNc1nc(N2CCN(C(=O)CCCCCCCCCCNC(=O)[C@@H]([C@H](C)O)n3cc(C)nn3)CC2)nc(N2CCN(C(=O)CCCCCCCCCCNC(=O)[C@@H]([C@H](C)O)n3cc(C)nn3)CC2)n1 | -28.1% | 0.0058 µM [falling, full curve, poor fit] | –
11 | O=C(CN1C2=NCCN2c2ccccc21)N1CCOCC1 | -21.2% | 0.231 µM [falling, full curve] | –
12 | CC(C#N)On1c(SC(C)C#N)nc2ccccc2c1=O (stereo unspecified) | -21.2% | – | 1.64 µM [falling, partial curve, poor fit]
13 | O=C(CSC1=Nc2ccccc2C2CC=NN12)Nc1ccc(F)c(F)c1F (stereo unspecified) | -23% | 32.6 µM [rising, partial curve, poor fit] | –
14 | Cc1cc(C)c(S(=O)(=O)Nc2ccc[nH]c2=O)c(C)c1 | – | – | 6.51 µM [rising, single point]
15 | CS(=O)(=O)N1CCN(C(=O)NC23CC4CC(CC(C4)C2)C3)CC1 | -27.2% | 29.1 µM [falling, single point] | 0.58 µM [falling, full curve, poor fit]
16 | O=C(COc1ccc2ccc(=O)oc2c1)N1CCN(c2ccc(F)cc2)CC1 | 12.5% | 6.51 µM [falling, single point] | –
17 | CC1(C)CC(NC(=O)COc2cc3oc(=O)c4c(c3cc2Cl)CCC4)CC(C)(C)N1 | 10.4% | 20.6 µM [rising, partial curve] | –
18 | CCOc1ccccc1C(=O)N1CCN(c2cccc(Cl)c2)CC1 | – | 1.46 µM [rising, partial curve] | 2.06 µM [rising, partial curve]

Row | Structure (SMILES) | cell number change | AC50 [1] | AC50 [2]
19 | Cc1nn(Cc2ccccc2)c(Cl)c1C(=O)OCC#N | 36.9% | – | 14.6 µM [rising, partial curve]
20 | CC(=O)Nc1ccc(S(=O)(=O)NCC2(N3CCOCC3)CCCCC2)cc1 | -50% | – | 29.1 µM [falling, single point]
21 | CCOC(=O)NCC(C#CCN(CC)CC)N(CC)CC (stereo unspecified) | -109% | 29.1 µM [falling, single point] | 14.6 µM [falling, partial curve]
22 | CCOc1ccc(N(CC(=O)NC(C)CC)S(=O)(=O)c2c(C)noc2C)cc1 (stereo unspecified) | -3.27% | 0.651 µM [falling, full curve] | 0.731 µM [falling, full curve, poor fit]
23 | Cn1c(N)c(C(=O)COC(=O)CSc2ccc(Cl)cc2)c(=O)n(C)c1=O | 33.3% | – | 1.64 µM [falling, partial curve, poor fit]
24 | CC(=O)NS(=O)(=O)c1ccc(N)cc1 | -18% | 0.731 µM [rising, full curve] | 3.26 µM [falling, partial curve, poor fit]
25 | COc1ccc(Cl)cc1C(=O)NNC(=S)NC(=O)/C=C/c1ccco1 | – | 0.58 µM [rising, single point] | 0.58 µM [rising, single point]
26 | Cc1nc(NCc2ccccc2)[nH]c(=O)c1CCC(C)C | – | 3.66 µM [falling, partial curve] | 6.51 µM [falling, single point]
27 | Cc1ccc(CN2C(=O)C(Cc3ccccc3)Nc3ncnc(N4CCN(c5ccccc5)CC4)c32)cc1 (stereo unspecified) | 4.88% | 3.26 µM [falling, single point] | 6.51 µM [falling, single point]
28 | O=C1CC(c2ccc(S(=O)(=O)NCc3ccccc3)cc2)CN1 (stereo unspecified) | 8.09% | – | –
29 | Cc1c(C(=O)Nc2ccc(-c3nnc4n3CCCCC4)cc2)oc2c1ccc1ccccc12 | -39% | 18.4 µM [falling, single point] | 16.4 µM [falling, single point]
30 | C=CCNC(=O)c1oc2ccc(S(=O)(=O)N3CCCCC3)cc2c1C | – | 29.1 µM [falling, single point] | –
31 | COC(=O)C1CCN(c2ccc(Cl)nn2)CC1 | -66.8% | – | 0.184 µM [falling, full curve]
32 | Cc1ccc(OCC(=O)Nc2ccc(C)c(S(=O)(=O)N3CCCCCC3)c2)c([N+](=O)[O-])n1 | 20.2% | 7.31 µM [rising, full curve, poor fit] | –
33 | CCOc1ncccc1C(=O)OCc1ccccc1 | – | 6.51 µM [falling, single point] | –
34 | O=C1CC(c2ccccc2)n2nc(N3C(=O)CCC3=O)nc2N1 (stereo unspecified) | -0.947% | 0.58 µM [falling, full curve] | –
35 | COc1cccc(C(=O)Nc2ccc3c(c2)C(=O)N(CC2CCCO2)C3=O)c1 (stereo unspecified) | -28.3% | – | –

Some values from above:
AC50 [1] with C=CCNC(=O)c1oc2ccc(S(=O)(=O)N3CCCCC3)cc2c1C reads 29.1 µM [falling, single point]
AC50 [2] with CCOc1ccc(N(CC(=O)NC(C)CC)S(=O)(=O)c2c(C)noc2C)cc1 (stereo unspecified) reads 0.731 µM [falling, full curve, poor fit]
